PubChem BioAssay AID1508588, Peter MacCallum Cancer Centre – 2020
The deposit covers about 18,000 reagents; below is an unselected part. Over the whole deposit, 790 (4.4%) are marked active. 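Calls rest on a combination of fold-change classes in drug and vehicle arms, not all shown here.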 Entries without a mark were called inactive.

- Assay: 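Genome-wide search for knock-downs that heighten vemurafenib action in melanoma cells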 (primary screen)
- Cells: human WM266.4 melanoma cells (BRAF V600 mutant)
- Reagents: siRNA pool against human genes, 40 nM
- Time to read-out: 96 h from transfection to read-out
- Treatment: vemurafenib 300 nM (about IC25), added 48 h after transfection, for 48 h; comparison arm got DMSO vehicle only
- Measured: 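Cell gain (DAPI nuclei at end minus before drug, mean of two replicates) and medium lactate by absorbance per cell, both as ratio to non-targeting siRNA, also grouped into fold-change classes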
- Direction: cell gain with vemurafenib: higher = more cell gain than with non-targeting siRNA; lactate per cell with vemurafenib: higher = more lactate made per cell
- Call rule: 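Enhancement is called by pairing each knock-down's vehicle-arm and drug-arm fold-change classes for viability or glycolysis; which class combinations qualify is not given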
- Calls: active = enhances vemurafenib effect; inactive = no enhancement seen

| Target gene | cell gain with vemurafenib | lactate per cell with vemurafenib |
| --- | --- | --- |
| FAM43A | 0.86 | 1.17 |
| LY6G5B | 0.61 | 1.4 |
| ZNF276 | 0.63 | 0.82 |
| ARID4A | 0.38 | 0.97 |
| PNRC1 | 0.22 | 0.75 |
| ZNF652 | 0.77 | 1 |
| CCNE2 | 0.99 | 0.9 |
| NDUFB5 | 0.39 | 1.86 |
| BCL2L10 | 0.83 | 0.8 |
| PPP1CB | 0.85 | 0.41 |
| OR51D1 | 0.83 | 0.89 |
| ROR1 | 1.06 | 0.76 |
| RABEP1 | 1.01 | 0.38 |
| ZDHHC7 | 1.06 | 0.4 |
| MRPL52 | 0.92 | 0.95 |
| BEX2 | 0.31 | 0.65 |
| IMPA1 | 0.67 | 1.23 |
| CABIN1 | 0.53 | 0.92 |
| ONECUT2 | 0.3 | 1.95 |
| C9 | 0.26 (active) | 0.15 |
| ODAM | 0.86 | 0.79 |
| STMN3 | 0.41 | 1.22 |
| CCL3L1 | 0.41 | 0.29 |
| GIPC2 | 0.68 | 0.6 |
| CDADC1 | 0.19 | 1.33 |
| TRIM43 | 0.99 | 0.88 |
| WIF1 | 0.14 | 1.64 |
| IFT38 | 0.84 | 0.7 |
| CDH1 | 0.85 | 0.79 |
| NEFM | 0.75 | 0.65 |
| CDHR2 | 0.8 (active) | 0.58 |
| NDUFAF5 | 0.78 | 0.6 |
| GORAB | 0.51 | 0.57 |
| TFAP2C | 0.6 | 1.54 |
